{"source": "PubChem BioAssay AID1259424 (University of Nebraska Medical Center, 2018)", "aim": "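Rank knockdowns across the genome by resemblance to the KSR1 depletion profile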 (primary screen)", "system": "human HCT116 colon cancer cells", "knock-down reagent": "siRNA pool against human genes, 50 nM", "read-out": "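Log2 levels of six mRNAs (branched-DNA multiplex), adjusted by two reference genes and the non-targeting median, then scored against the average KSR1 knockdown pattern as Pearson r and euclidean distance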", "direction": "mean correlation with KSR1 profile: higher = expression change more like KSR1 knockdown", "note": "Here is one part, drawn at random, of about 14,000 deposited reagents. 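Higher correlation or smaller distance means closer resemblance to KSR1 loss; control wells, including KSR1 knockdowns, recur on many plates.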 Further read-outs or replicates are left out here. No sequences are given here. Not stated in the record: the time to read-out."}
{"gene knocked down": "DCDC2 (GeneID 51473)", "mean correlation with KSR1 profile": -0.112}
{"gene knocked down": "DSG3 (GeneID 1830)", "mean correlation with KSR1 profile": -0.273}
{"gene knocked down": "SLC25A37 (GeneID 51312)", "mean correlation with KSR1 profile": -0.454}
{"gene knocked down": "DPP3 (GeneID 10072)", "mean correlation with KSR1 profile": -0.248}
{"gene knocked down": "HIPK1 (GeneID 204851)", "mean correlation with KSR1 profile": 0.537}
{"gene knocked down": "ZRANB2 (GeneID 9406)", "mean correlation with KSR1 profile": -0.36}
{"gene knocked down": "SLC35B1 (GeneID 10237)", "mean correlation with KSR1 profile": -0.234}
{"gene knocked down": "AMHR2 (GeneID 269)", "mean correlation with KSR1 profile": 0.534}
{"gene knocked down": "RBPMS (GeneID 11030)", "mean correlation with KSR1 profile": 0.382}
{"gene knocked down": "SMC6 (GeneID 79677)", "mean correlation with KSR1 profile": -0.467}
{"gene knocked down": "NDEL1 (GeneID 81565)", "mean correlation with KSR1 profile": -0.347}
{"gene knocked down": "SH3TC1 (GeneID 54436)", "mean correlation with KSR1 profile": -0.151}

No new results follow: 4 of the entries above.
{"gene knocked down": "DPP3 (GeneID 10072)", "mean correlation with KSR1 profile": -0.248}
{"gene knocked down": "HIPK1 (GeneID 204851)", "mean correlation with KSR1 profile": 0.537}
{"gene knocked down": "ZRANB2 (GeneID 9406)", "mean correlation with KSR1 profile": -0.36}
{"gene knocked down": "SLC35B1 (GeneID 10237)", "mean correlation with KSR1 profile": -0.234}

The results go on:
{"gene knocked down": "PGLYRP4 (GeneID 57115)", "mean correlation with KSR1 profile": 0.184}
{"gene knocked down": "ASMTL-AS1 (GeneID 80161)", "mean correlation with KSR1 profile": 0.142}
{"gene knocked down": "ARFGEF1 (GeneID 10565)", "mean correlation with KSR1 profile": -0.259}
{"gene knocked down": "GPR108 (GeneID 56927)", "mean correlation with KSR1 profile": 0.183}
{"gene knocked down": "ZNF133 (GeneID 7692)", "mean correlation with KSR1 profile": -0.401}
{"gene knocked down": "PIK3R5 (GeneID 23533)", "mean correlation with KSR1 profile": -0.398}
{"gene knocked down": "NDUFC2 (GeneID 4718)", "mean correlation with KSR1 profile": -0.228}
{"gene knocked down": "SULF2 (GeneID 55959)", "mean correlation with KSR1 profile": -0.0342}
{"gene knocked down": "HLA-DPB2 (GeneID 3116)", "mean correlation with KSR1 profile": -0.0488}
{"gene knocked down": "GPR171 (GeneID 29909)", "mean correlation with KSR1 profile": 0.711}
{"gene knocked down": "SMIM7 (GeneID 79086)", "mean correlation with KSR1 profile": 0.00714}
{"gene knocked down": "KCNE1 (GeneID 3753)", "mean correlation with KSR1 profile": -0.408}
{"gene knocked down": "CRIPT (GeneID 9419)", "mean correlation with KSR1 profile": -0.45}
{"gene knocked down": "MS4A7 (GeneID 58475)", "mean correlation with KSR1 profile": -0.846}
{"gene knocked down": "CBFA2T3 (GeneID 863)", "mean correlation with KSR1 profile": -0.00764}
{"gene knocked down": "SLC14A1 (GeneID 6563)", "mean correlation with KSR1 profile": -0.315}
